The list shows only some results of the screen, not a fair sample: it is rich in T/C values a quarter to a half above the control, in often repeated tests (any T/C) and in doses without a T/C. Further doses and runs are listed elsewhere. T/C gives the treated animals as a percentage of the vehicle group. Some entries give survivors of the animals treated and no T/C: the source holds a T/C of zero for them, seemingly a mark for toxic or unscored doses. Some doses without a T/C left all or most animals alive at the check, yet need not have been tolerated: the source hardly ever lists a survival T/C far under the control, and the zero likely stands for such cases as well. Survivors were counted at the toxicity check, usually on the fifth day, unless a day is given; later deaths do not show. Schedule codes are those of the source, taken here to give the interval after Q, in days (D) or hours (H), and the number of doses after X. Some doses were run more than once; their values stand side by side, smallest first. Where survival is the endpoint, the PubChem record calls one and a half times the control and up active, and a quarter to a half above the control has no call in these data; cut-offs in other NCI protocols can differ. Marks such as (2×) stand for listed records that agree. Some T/C values are followed by the survivors on the day toxicity was checked, most often the fifth; where none is given, no animal had died by that day.
Test system: AKR/Lw mice, AKR lymphoma ip, median survival T/C
Assay: NCI In Vivo Anticancer Drug Screen. Data for tumor model Lymphoma AKR (Transplanted) (intraperitoneal) in AKR/Lw mice
Conditions: T/C endpoint: median survival time, higher T/C = longer survival
Protocol: The antitumor activity of compounds was measured in mice bearing transplantable tumors. Survival or tumor size were measured and the results are expressed as the measurement made in the treated group (T) divided by the measurement made in the vehicle treated control group (C). The tumor model used in this assay is Lymphoma AKR (Transplanted) (intraperitoneal) in AKR/Lw mice

[1] = dose: 12.5 mg/kg/injection, schedule: Q01DX001 (ip), vehicle: Klucel (hydroxypropylcellulose) (HPC)
[2] = dose: 12.5 mg/kg/injection, schedule: Q07DX003 (ip), vehicle: Klucel (hydroxypropylcellulose) (HPC)
[3] = dose: 12.5 mg/kg/injection, schedule: Q07DX003 (ip), vehicle: saline
[4] = dose: 25.0 mg/kg/injection, schedule: Q01DX001 (ip), vehicle: Klucel (hydroxypropylcellulose) (HPC)
[5] = dose: 25.0 mg/kg/injection, schedule: Q01DX001 (ip), vehicle: saline
[6] = dose: 25.0 mg/kg/injection, schedule: Q07DX003 (ip), vehicle: Klucel (hydroxypropylcellulose) (HPC)
[7] = dose: 50.0 mg/kg/injection, schedule: Q01DX001 (ip), vehicle: Klucel (hydroxypropylcellulose) (HPC)
[8] = dose: 50.0 mg/kg/injection, schedule: Q01DX001 (ip), vehicle: saline
[9] = dose: 50.0 mg/kg/injection, schedule: Q07DX003 (ip), vehicle: Klucel (hydroxypropylcellulose) (HPC)
[10] = dose: 75.0 mg/kg/injection, schedule: Q01DX001 (ip), vehicle: Klucel (hydroxypropylcellulose) (HPC)

Compound: CC1CCC(NC(=O)N(CCCl)N=O)CC1 (configuration not stated)
- T/C (dose: 3.1 mg/kg/injection, schedule: Q07DX003 (ip), vehicle: Klucel (hydroxypropylcellulose) (HPC)): 94, 100, 107, 112, 115 % of control (2×)
- T/C (dose: 5.0 mg/kg/injection, schedule: Q14DX003 (ip), vehicle: saline with Tween-80, evaluated on day 5): 104 and 117 % of control
- T/C (dose: 5.0 mg/kg/injection, schedule: Q14DX003 (ip), vehicle: saline with Tween-80, evaluated on day 9): 91 % of control
- T/C (dose: 5.0 mg/kg/injection, schedule: Q14DX003 (ip), vehicle: saline with Tween-80, evaluated on day 60): 104 and 117 % of control
- T/C (dose: 6.0 mg/kg/injection, schedule: Q01DX001 (ip), vehicle: saline with Tween-80, evaluated on day 5): 112 and 130 % of control
- T/C (dose: 6.0 mg/kg/injection, schedule: Q01DX001 (ip), vehicle: saline with Tween-80, evaluated on day 60): 112 and 130 % of control
- T/C (dose: 6.2 mg/kg/injection, schedule: Q07DX003 (ip), vehicle: Klucel (hydroxypropylcellulose) (HPC)): 97, 100 (2×), 105 (2×), 121 % of control [9 of 10 alive]
- T/C (dose: 6.25 mg/kg/injection, schedule: Q07DX003 (ip), vehicle: saline): 134 % of control
- T/C (dose: 6.7 mg/kg/injection, schedule: Q04DX003 (ip), vehicle: saline with Tween-80, evaluated on day 5): 146 % of control
- T/C (dose: 6.7 mg/kg/injection, schedule: Q04DX003 (ip), vehicle: saline with Tween-80, evaluated on day 60): 146 % of control
- T/C (dose: 7.0 mg/kg/injection, schedule: Q01DX001 (ip), vehicle: saline with Tween-80, evaluated on day 5): 138 % of control
- T/C (dose: 7.0 mg/kg/injection, schedule: Q01DX001 (ip), vehicle: saline with Tween-80, evaluated on day 60): 138 % of control
- survivor count (dose: 10.0 mg/kg/injection, schedule: Q04DX003 (ip), vehicle: saline with Tween-80): 9 of 10
- T/C (dose: 10.0 mg/kg/injection, schedule: Q14DX003 (ip), vehicle: saline with Tween-80, evaluated on day 5): 115 and 123 % of control
- T/C (dose: 10.0 mg/kg/injection, schedule: Q14DX003 (ip), vehicle: saline with Tween-80, evaluated on day 9): 108 and 114 % of control
- T/C (dose: 10.0 mg/kg/injection, schedule: Q14DX003 (ip), vehicle: saline with Tween-80, evaluated on day 60): 115 and 123 % of control
- T/C (dose: 12.0 mg/kg/injection, schedule: Q01DX001 (ip), vehicle: saline with Tween-80, evaluated on day 5): 111 and 128 % of control
- T/C (dose: 12.0 mg/kg/injection, schedule: Q01DX001 (ip), vehicle: saline with Tween-80, evaluated on day 60): 111 and 128 % of control
- T/C (dose: 12.0 mg/kg/injection, schedule: Q01DX001 (ip), vehicle: saline): 131 % of control
- T/C [1]: 100, 108, 120, 125, 140 % of control [9 of 10 alive]
- survivor count [1]: 8 of 10
- T/C [2]: 105 (3×) and 110 % of control (2×)
- survivor count [2]: 10 of 10
- T/C [3]: 131 % of control (2×)
- survivor count [3]: 10 of 10
- T/C (dose: 20.0 mg/kg/injection, schedule: Q10DX002 (ip), vehicle: saline with Tween-80): 128 % of control
- T/C (dose: 20.0 mg/kg/injection, schedule: Q14DX003 (ip), vehicle: saline with Tween-80, evaluated on day 5): 123 % of control
- T/C (dose: 20.0 mg/kg/injection, schedule: Q14DX003 (ip), vehicle: saline with Tween-80, evaluated on day 9): 110 and 119 % of control
- T/C (dose: 20.0 mg/kg/injection, schedule: Q14DX003 (ip), vehicle: saline with Tween-80, evaluated on day 60): 123 % of control
- T/C (dose: 24.0 mg/kg/injection, schedule: Q01DX001 (ip), vehicle: saline with Tween-80, evaluated on day 5): 109 and 127 % of control
- T/C (dose: 24.0 mg/kg/injection, schedule: Q01DX001 (ip), vehicle: saline with Tween-80, evaluated on day 60): 109 and 127 % of control [9 of 10 alive]
- T/C [4]: 93, 108, 133, 145 % of control
- survivor count [4]: 4 of 10 and 9 of 10
- T/C [5]: 128 and 134 % of control [9 of 10 alive]
- survivor count [5]: 9 of 10
- T/C [6]: 107 and 115 % of control
- survivor count [6]: 10 of 10
- T/C (dose: 25.0 mg/kg/injection, schedule: Q07DX003 (ip), vehicle: saline): 125 % of control
- T/C (dose: 30.0 mg/kg/injection, schedule: Q14DX003 (ip), vehicle: saline with Tween-80): 132 % of control
- survivor count (dose: 40.0 mg/kg/injection, schedule: Q04DX004 (ip), vehicle: Klucel (hydroxypropylcellulose) (HPC)): 9 of 10
- T/C (dose: 40.0 mg/kg/injection, schedule: Q14DX003 (ip), vehicle: saline with Tween-80): 148 % of control
- T/C [7]: 104 [9 of 10 alive], 108, 129 % of control
- survivor count [7]: 4 of 10, 5 of 10, 9 of 10
- T/C [8]: 131 and 140 % of control
- survivor count [8]: 10 of 10
- T/C [9]: 105 % of control [9 of 10 alive]
- survivor count [9]: 6 of 10 and 10 of 10
- T/C [10]: 91 and 108 % of control
- survivor count [10]: 0 of 10, 3 of 10, 6 of 10, 9 of 10
- survivor count (dose: 100.0 mg/kg/injection, schedule: Q01DX001 (ip), vehicle: saline): 4 of 10 and 7 of 10

Compound: c1ccc2c(c1)CNCc1ccccc1-2
- survivor count (dose: 200.0 mg/kg/injection, schedule: Q01DX001 (ip), vehicle: saline): 0 of 10
- survivor count (dose: 400.0 mg/kg/injection, schedule: Q01DX001 (ip), vehicle: saline): 0 of 10
